In paper PMC9440930:
Results are given in words; binding and its absence hold for the method and conditions named. Binding seen in cells or lysates may run through a third protein. Binding calls can cover weak binding; strength is not graded here.

Protein sequences, listed by entry. Tags and fused reporters are not part of them. Lines headed by an entry give the natural chain unless they say otherwise; changes in a name come on top.
UniProt P09405: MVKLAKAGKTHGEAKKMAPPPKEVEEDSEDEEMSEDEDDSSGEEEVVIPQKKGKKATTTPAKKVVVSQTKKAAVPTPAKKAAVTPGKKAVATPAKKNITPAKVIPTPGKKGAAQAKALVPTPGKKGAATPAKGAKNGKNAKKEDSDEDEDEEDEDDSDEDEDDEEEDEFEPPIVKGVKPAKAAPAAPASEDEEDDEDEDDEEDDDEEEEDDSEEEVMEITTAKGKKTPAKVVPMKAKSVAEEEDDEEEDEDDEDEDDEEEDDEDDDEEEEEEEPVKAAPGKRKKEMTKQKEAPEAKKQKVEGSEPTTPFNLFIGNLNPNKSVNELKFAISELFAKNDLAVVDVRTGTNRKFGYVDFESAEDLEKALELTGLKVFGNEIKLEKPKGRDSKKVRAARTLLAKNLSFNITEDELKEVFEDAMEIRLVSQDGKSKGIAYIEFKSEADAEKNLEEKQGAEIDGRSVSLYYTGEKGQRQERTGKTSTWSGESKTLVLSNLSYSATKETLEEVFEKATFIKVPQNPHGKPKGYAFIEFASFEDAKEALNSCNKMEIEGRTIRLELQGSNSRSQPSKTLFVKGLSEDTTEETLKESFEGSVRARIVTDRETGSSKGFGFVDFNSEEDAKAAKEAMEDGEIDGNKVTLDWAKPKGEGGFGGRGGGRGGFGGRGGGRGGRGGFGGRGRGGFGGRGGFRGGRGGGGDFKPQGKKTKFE
UniProt P62715: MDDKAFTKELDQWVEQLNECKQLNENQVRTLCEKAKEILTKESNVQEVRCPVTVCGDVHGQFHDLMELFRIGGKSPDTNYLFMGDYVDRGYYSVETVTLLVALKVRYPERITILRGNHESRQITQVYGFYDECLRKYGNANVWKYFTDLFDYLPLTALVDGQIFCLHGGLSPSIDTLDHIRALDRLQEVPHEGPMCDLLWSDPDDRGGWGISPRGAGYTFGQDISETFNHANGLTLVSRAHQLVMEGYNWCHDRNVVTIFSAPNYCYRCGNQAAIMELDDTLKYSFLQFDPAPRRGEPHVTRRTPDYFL

Target: nucleolin (endogenous NCL) (mouse (endogenous in RAW 264.7)) (UniProt P09405)
Experiment: co-IP; RAW 264.7 cells stimulated with LPS for 12 h; lysed with 1% NP-40; protein G-Sepharose, washed with 0.1% NP-40; immunoblot

Substance: protein phosphatase 2A (PP2A), catalytic subunit PP2AC (from UniProt P62715) (enzyme)
- binding: binds
